Reference: the supplement of paper PMC10849652
Some of the results follow.

Sequences of proteins named here, by UniProt entry; tags and fusion partners are left off. A change or cut given only in a name is not applied to a line headed by its entry.
UniProt Q14677: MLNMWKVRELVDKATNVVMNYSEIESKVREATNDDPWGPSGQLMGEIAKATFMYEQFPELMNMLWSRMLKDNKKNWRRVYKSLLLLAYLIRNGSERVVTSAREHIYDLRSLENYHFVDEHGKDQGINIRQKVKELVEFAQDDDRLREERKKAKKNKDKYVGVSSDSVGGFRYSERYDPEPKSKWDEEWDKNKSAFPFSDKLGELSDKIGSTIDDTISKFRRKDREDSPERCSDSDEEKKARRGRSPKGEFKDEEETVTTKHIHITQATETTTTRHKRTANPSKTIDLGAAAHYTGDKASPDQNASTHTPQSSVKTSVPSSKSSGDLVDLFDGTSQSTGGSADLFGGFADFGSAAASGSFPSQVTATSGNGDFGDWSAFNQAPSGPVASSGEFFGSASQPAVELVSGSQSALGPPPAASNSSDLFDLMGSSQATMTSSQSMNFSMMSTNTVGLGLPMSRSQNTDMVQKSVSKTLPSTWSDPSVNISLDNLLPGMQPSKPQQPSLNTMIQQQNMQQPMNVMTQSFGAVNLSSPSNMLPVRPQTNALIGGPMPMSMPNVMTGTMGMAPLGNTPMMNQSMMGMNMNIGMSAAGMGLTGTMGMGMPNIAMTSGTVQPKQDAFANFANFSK
UniProt Q9Y3Y2: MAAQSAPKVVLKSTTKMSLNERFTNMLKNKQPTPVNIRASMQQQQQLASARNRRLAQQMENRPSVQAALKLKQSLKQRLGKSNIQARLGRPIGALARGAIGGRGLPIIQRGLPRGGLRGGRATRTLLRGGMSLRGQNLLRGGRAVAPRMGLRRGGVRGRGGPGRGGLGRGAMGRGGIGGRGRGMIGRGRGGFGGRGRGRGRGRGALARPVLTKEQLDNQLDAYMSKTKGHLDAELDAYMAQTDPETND
UniProt Q2KHT3: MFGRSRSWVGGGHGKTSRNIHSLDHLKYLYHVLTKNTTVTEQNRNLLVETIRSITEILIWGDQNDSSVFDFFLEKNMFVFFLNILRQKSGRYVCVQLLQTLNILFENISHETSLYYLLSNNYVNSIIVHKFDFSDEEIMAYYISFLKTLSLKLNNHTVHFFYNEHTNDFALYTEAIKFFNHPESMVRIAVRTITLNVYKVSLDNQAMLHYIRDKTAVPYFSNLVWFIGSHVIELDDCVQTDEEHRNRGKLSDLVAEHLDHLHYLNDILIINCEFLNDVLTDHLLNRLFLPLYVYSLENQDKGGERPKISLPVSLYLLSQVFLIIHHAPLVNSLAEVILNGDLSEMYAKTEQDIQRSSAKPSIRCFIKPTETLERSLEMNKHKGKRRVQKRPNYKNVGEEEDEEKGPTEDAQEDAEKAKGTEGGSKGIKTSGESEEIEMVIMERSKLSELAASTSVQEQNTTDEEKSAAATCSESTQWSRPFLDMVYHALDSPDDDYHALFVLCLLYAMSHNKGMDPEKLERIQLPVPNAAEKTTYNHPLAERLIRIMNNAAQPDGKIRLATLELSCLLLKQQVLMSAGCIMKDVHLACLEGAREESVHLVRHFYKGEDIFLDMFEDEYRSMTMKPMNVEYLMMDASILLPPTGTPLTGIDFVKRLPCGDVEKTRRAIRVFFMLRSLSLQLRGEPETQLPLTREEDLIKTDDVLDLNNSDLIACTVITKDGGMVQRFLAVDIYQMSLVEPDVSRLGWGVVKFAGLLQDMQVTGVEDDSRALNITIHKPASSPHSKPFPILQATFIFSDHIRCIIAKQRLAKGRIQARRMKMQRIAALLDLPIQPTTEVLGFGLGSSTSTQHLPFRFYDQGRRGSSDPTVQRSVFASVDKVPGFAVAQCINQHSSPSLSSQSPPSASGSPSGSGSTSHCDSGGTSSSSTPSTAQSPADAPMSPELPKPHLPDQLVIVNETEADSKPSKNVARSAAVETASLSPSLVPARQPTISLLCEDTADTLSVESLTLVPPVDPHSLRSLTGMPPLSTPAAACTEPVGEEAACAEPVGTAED
UniProt P30622: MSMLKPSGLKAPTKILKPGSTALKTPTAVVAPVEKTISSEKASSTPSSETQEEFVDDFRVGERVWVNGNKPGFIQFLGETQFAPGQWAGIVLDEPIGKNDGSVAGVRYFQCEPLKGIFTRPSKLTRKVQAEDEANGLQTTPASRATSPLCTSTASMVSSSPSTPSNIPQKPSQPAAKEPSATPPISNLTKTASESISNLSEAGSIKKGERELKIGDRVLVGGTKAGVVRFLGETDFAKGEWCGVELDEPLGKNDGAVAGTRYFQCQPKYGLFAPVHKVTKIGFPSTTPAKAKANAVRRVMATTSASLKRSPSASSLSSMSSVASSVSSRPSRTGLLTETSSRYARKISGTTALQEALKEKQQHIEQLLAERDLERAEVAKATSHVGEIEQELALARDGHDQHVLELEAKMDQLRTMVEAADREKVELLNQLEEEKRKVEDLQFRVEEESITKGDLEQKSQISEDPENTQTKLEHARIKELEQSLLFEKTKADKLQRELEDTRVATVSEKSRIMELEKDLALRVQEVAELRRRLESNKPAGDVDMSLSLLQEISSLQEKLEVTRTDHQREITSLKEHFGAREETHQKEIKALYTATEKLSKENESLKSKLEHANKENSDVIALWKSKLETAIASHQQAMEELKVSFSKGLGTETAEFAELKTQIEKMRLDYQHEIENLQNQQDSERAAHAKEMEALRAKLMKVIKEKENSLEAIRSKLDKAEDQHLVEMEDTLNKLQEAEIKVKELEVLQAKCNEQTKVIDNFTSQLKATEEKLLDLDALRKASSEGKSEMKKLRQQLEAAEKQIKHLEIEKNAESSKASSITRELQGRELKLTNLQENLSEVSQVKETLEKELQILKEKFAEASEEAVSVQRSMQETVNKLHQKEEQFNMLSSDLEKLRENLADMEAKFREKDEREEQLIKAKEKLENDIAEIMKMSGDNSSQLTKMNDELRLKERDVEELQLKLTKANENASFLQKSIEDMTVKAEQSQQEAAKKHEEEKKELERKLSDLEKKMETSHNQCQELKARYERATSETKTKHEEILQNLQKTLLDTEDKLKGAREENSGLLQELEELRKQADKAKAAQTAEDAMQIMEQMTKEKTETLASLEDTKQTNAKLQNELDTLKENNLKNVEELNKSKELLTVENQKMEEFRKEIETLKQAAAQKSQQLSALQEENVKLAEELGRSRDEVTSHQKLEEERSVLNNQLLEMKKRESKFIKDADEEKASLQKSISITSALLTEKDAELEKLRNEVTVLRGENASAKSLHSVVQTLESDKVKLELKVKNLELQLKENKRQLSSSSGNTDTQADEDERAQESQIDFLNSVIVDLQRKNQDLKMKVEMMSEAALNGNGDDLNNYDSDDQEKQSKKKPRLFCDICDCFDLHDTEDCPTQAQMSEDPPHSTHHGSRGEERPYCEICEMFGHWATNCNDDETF
UniProt Q9Y3D0: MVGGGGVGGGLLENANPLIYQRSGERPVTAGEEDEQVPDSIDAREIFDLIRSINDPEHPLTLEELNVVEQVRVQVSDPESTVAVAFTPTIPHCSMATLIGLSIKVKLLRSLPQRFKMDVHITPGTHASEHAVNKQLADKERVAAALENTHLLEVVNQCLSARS
UniProt Q9NX76: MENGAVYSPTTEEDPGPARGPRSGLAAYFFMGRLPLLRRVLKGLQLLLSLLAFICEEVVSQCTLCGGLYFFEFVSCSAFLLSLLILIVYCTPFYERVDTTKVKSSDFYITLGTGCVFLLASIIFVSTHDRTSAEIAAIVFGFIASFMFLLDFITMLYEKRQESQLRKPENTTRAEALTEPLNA
UniProt Q9NPF2: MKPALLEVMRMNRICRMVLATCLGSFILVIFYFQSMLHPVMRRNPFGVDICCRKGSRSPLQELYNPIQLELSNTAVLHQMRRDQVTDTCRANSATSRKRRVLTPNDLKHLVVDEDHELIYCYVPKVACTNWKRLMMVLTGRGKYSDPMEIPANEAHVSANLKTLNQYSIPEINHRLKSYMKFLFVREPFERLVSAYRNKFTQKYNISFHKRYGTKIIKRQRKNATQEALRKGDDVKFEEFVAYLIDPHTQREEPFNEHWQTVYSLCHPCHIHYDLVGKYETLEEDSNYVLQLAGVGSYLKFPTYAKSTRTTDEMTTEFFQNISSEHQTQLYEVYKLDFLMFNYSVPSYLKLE
UniProt Q9BW66: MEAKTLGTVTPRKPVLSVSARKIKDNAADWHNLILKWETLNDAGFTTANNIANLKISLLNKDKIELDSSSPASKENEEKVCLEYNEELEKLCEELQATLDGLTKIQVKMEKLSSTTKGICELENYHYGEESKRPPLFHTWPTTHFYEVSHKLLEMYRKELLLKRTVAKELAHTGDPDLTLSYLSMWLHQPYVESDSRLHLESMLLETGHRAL
UniProt Q8IZR5: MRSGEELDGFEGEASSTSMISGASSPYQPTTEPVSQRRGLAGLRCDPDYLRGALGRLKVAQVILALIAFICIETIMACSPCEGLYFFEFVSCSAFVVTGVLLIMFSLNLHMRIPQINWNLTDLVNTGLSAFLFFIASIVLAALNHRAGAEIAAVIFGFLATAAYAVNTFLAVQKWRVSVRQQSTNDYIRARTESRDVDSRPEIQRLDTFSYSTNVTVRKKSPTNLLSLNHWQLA
UniProt Q8IYA6: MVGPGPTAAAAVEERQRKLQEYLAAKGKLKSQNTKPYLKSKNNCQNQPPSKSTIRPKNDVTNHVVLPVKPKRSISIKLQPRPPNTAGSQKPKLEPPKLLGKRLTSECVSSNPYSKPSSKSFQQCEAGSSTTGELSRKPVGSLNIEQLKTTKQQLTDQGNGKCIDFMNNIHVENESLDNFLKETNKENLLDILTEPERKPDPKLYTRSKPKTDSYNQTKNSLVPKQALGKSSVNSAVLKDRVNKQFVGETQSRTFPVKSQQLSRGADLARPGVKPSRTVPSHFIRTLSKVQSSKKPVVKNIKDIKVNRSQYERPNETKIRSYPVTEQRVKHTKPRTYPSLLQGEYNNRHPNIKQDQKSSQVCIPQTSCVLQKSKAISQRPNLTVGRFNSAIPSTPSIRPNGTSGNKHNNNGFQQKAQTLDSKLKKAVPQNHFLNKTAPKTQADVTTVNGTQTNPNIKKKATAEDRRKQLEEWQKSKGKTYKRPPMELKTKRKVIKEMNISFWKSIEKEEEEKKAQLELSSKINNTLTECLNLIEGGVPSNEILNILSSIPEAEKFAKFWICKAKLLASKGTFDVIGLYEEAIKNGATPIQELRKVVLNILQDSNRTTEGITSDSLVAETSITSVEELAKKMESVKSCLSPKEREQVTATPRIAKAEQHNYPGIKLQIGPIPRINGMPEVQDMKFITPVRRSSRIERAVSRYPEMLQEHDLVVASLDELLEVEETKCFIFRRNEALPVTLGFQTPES
UniProt O75122: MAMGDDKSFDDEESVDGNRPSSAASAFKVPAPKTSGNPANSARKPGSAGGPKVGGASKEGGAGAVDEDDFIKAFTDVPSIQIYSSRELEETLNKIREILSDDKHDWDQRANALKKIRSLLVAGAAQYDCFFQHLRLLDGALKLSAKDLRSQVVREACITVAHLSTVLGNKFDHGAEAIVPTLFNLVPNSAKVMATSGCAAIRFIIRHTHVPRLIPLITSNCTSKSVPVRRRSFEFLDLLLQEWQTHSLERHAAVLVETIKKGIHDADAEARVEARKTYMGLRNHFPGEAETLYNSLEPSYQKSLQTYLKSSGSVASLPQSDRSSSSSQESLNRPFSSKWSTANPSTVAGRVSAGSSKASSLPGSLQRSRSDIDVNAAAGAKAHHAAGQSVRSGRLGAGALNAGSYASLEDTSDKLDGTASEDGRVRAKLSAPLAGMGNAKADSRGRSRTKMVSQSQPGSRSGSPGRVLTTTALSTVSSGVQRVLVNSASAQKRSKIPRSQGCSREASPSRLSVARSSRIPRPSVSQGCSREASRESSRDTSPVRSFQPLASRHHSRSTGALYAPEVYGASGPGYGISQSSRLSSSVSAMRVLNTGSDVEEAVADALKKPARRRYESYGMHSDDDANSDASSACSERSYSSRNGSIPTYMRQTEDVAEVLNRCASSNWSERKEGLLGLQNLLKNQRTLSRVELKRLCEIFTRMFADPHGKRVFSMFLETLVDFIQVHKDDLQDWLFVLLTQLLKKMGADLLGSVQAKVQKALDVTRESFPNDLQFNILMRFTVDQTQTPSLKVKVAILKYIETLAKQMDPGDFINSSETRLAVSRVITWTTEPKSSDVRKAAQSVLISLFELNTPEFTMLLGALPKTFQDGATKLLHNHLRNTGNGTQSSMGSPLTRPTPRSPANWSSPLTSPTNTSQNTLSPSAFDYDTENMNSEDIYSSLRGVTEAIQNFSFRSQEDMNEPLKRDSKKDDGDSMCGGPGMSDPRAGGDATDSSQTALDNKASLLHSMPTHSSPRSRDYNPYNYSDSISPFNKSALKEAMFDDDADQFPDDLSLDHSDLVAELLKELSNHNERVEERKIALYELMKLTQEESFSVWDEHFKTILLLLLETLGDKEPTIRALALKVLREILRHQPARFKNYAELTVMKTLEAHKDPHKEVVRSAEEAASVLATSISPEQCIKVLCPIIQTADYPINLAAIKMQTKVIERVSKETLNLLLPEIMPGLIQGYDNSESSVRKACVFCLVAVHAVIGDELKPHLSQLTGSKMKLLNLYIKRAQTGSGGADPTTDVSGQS

Legend:
Experiment in all cases: log2 fold change, soluble protein after heating vs DMSO (PISA); higher = thermal stabilisation; K562 lysate, 10 uM; active = over 0.2 and 3.5 SD of the protein, either way, in both replicates (recomputed)
vemurafenib = compound: CCCS(=O)(=O)Nc1ccc(F)c(C(=O)c2c[nH]c3ncc(-c4ccc(Cl)cc4)cc23)c1F [vemurafenib]
Summary of the method: (§1)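 Quantification was by TMTpro 16plex LC-MS/MS with equalised channel sums, applied to the supernatant after 21,000xg for 90 min. Samples were crude K562 extract at 1 mg/mL protein in PBS pH 7.4 with 1 mM MgCl2, treated with 10 μM compound for 30 min, heated for 3 min across 48°C-58°C, pooled and brought to 0.5% NP-40 at 4°C. Values are log-two fold changes in thermal stability relative to solvent controls, from duplicates.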

[1] = compound: CCCS(=O)(=O)Nc1ccc(F)c(C(=O)c2c[nH]c3ncc(Cl)cc23)c1F
Summary of the method: as §1

barasertib = compound: CCN(CCCOc1ccc2c(Nc3cc(CC(=O)Nc4cccc(F)c4)[nH]n3)ncnc2c1)CCOP(=O)(O)O [barasertib]
Summary of the method: as §1

[2] = compound: CC[C@@H]1C(=O)N(C)c2cnc(Nc3ccc(C(=O)NC4CCN(C)CC4)cc3OC)nc2N1C1CCCC1
Summary of the method: as §1

volasertib = compound: CC[C@@H]1C(=O)N(C)c2cnc(Nc3ccc(C(=O)N[C@H]4CC[C@H](N5CCN(CC6CC6)CC5)CC4)cc3OC)nc2N1C(C)C [volasertib]
Summary of the method: as §1

[3] = compound: CCn1c(C(=O)N(C2CC2)C2CC2)cc2c3c(ncn3C)c(Nc3cc(C)n(C)n3)nc21
Summary of the method: as §1

[4] = compound: CCn1cc(-c2ccnc3[nH]c(-c4cccc(CN(C)C)c4)cc23)c(-c2ccc(NC(=O)N(C)C)cc2)n1
Summary of the method: as §1

[5] = compound: CN1CCC(CNc2ccc3ncc(-c4cccc(OC(F)(F)F)c4)n3n2)CC1
Summary of the method: as §1

saracatinib = compound: CN1CCN(CCOc2cc(OC3CCOCC3)c3c(Nc4c(Cl)ccc5c4OCO5)ncnc3c2)CC1 [saracatinib]
Summary of the method: as §1

sotrastaurin = compound: CN1CCN(c2nc(C3=C(c4c[nH]c5ccccc45)C(=O)NC3=O)c3ccccc3n2)CC1 [sotrastaurin]
Summary of the method: as §1

alvocidib = compound: CN1CC[C@H](c2c(O)cc(O)c3c(=O)cc(-c4ccccc4Cl)oc23)[C@H](O)C1 [alvocidib]
Summary of the method: as §1

Tubastatin A = compound: CN1CCc2c(c3ccccc3n2Cc2ccc(C(=O)NO)cc2)C1 [Tubastatin A]
Summary of the method: as §1

[6] = compound: CNC(=O)C1=CC=CC=C1NC2=NC(=NC=C2Cl)NC3=C(C=C(C=C3)N4CCOCC4)OC
Summary of the method: as §1

defactinib = compound: CNC(=O)c1ccc(Nc2ncc(C(F)(F)F)c(NCc3nccnc3N(C)S(C)(=O)=O)n2)cc1 [defactinib]
Summary of the method: as §1

[7] = compound: CNc1nc(-c2ccc3c(N)n[nH]c3c2)cc(N2C[C@@H](C(=O)NC3CCCCC3)CC[C@H]2C)n1
Summary of the method: as §1

encorafenib = compound: COC(=O)N[C@@H](C)CNc1nccc(-c2cn(C(C)C)nc2-c2cc(Cl)cc(NS(C)(=O)=O)c2F)n1 [encorafenib]
Summary of the method: as §1

[8] = compound: COC(=O)[C@H](CCSC)NC(=O)C1=C(C=C(C=C1)NC[C@H](CS)N)C2=CC=CC=C2
Summary of the method: as §1

alisertib = compound: COc1cc(Nc2ncc3c(n2)-c2ccc(Cl)cc2C(c2c(F)cccc2OC)=NC3)ccc1C(=O)O [alisertib]
Summary of the method: as §1

[9] = compound: COc1cc2nc(-c3cc(F)ccc3O)nc(N[C@@H]3CNC[C@H]3C(C)(C)O)c2cc1OC
Summary of the method: as §1

gefitinib = compound: COc1cc2ncnc(Nc3ccc(F)c(Cl)c3)c2cc1OCCCN1CCOCC1 [gefitinib]
Summary of the method: as §1

| Target | log2 fold change (vemurafenib) | log2 fold change [1] | log2 fold change (barasertib) | log2 fold change [2] | log2 fold change (volasertib) | log2 fold change [3] | log2 fold change [4] | log2 fold change [5] | log2 fold change (saracatinib) | log2 fold change (sotrastaurin) | log2 fold change (alvocidib) | log2 fold change (Tubastatin A) | log2 fold change [6] | log2 fold change (defactinib) | log2 fold change [7] | log2 fold change (encorafenib) | log2 fold change [8] | log2 fold change (alisertib) | log2 fold change [9] | log2 fold change (gefitinib) |
| --- | --- | --- | --- | --- | --- | --- | --- | --- | --- | --- | --- | --- | --- | --- | --- | --- | --- | --- | --- | --- |
| CLINT1 isoform 3 (UniProt Q14677) | inactive: 0.027 | inactive: -0.001 | inactive: 0.019 | inactive: 0.106 | inactive: 0.005 | inactive: 0.028 | inactive: 0.005 | inactive: -0.028 | inactive: 0.024 | inactive: -0.007 | inactive: -0.003 | inactive: 0.053 | inactive: 0.051 | inactive: 0.019 | inactive: 0.115 | inactive: 0.128 | inactive: -0.012 | inactive: 0.035 | inactive: 0.015 | inactive: -0.024 |
| CLP1 (UniProt Q92989) | inactive: -0.035 | inactive: 0 | inactive: 0.03 | inactive: -0.045 | inactive: -0.05 | inactive: 0.015 | inactive: -0.13 | inactive: 0.096 | inactive: 0.115 | inactive: 0.036 | inactive: -0.103 | inactive: -0.179 | inactive: 0.004 | inactive: 0.071 | inactive: -0.037 | inactive: 0.02 | inactive: 0.023 | inactive: -0.002 | inactive: 0.031 | inactive: 0.033 |
| CHCHD6 (UniProt Q9BRQ6) | inactive: -0.053 | inactive: 0 | inactive: 0.026 | inactive: 0.125 | inactive: 0.352 | inactive: -0.005 | inactive: 0.03 | inactive: 0.011 | inactive: -0.213 | inactive: -0.051 | inactive: 0.029 | inactive: 0.031 | inactive: -0.101 | inactive: -0.055 | inactive: 0.208 | inactive: 0.066 | inactive: -0.003 | – | inactive: -0.133 | – |
| CHTOP isoform 3 (UniProt Q9Y3Y2) | inactive: -0.032 | inactive: 0.05 | inactive: -0.045 | inactive: 0.114 | inactive: -0.025 | inactive: -0.083 | inactive: -0.106 | inactive: 0.037 | inactive: 0.036 | inactive: -0.008 | inactive: 0.115 | inactive: 0.011 | inactive: -0.122 | inactive: 0.014 | inactive: 0.067 | inactive: -0.029 | inactive: 0.14 | – | inactive: -0.004 | – |
| CLEC16A (UniProt Q2KHT3) | inactive: 0.003 | inactive: -0.023 | inactive: 0.014 | inactive: 0.001 | inactive: 0.023 | inactive: -0.007 | inactive: 0.157 | inactive: -0.14 | inactive: 0.004 | inactive: 0.016 | inactive: 0.086 | inactive: 0.027 | inactive: 0.026 | inactive: -0.004 | inactive: 0.034 | inactive: 0.038 | inactive: -0.03 | inactive: -0.023 | inactive: 0.028 | inactive: 0.043 |
| CHPF2 (UniProt Q9P2E5) | inactive: -0.123 | – | – | inactive: -0.112 | – | inactive: -0.026 | – | – | inactive: -0.085 | inactive: -0.035 | – | inactive: 0.005 | inactive: 0.002 | inactive: -0.048 | inactive: -0.045 | inactive: 0.077 | inactive: 0.021 | – | – | – |
| CHD9 (UniProt Q3L8U1) | inactive: -0.028 | – | – | – | – | inactive: -0.139 | active: 1.88 | inactive: -0.122 | inactive: 0.114 | inactive: 0.17 | inactive: 0.027 | inactive: 0.055 | inactive: -0.064 | inactive: -0.147 | inactive: -0.137 | – | – | inactive: -0.369 | – | inactive: 0.111 |
| CLIP1 isoform 2 (UniProt P30622) | – | inactive: 0.112 | inactive: -0.083 | inactive: 0.073 | inactive: 0.055 | inactive: -0.04 | inactive: -0.488 | inactive: 0.02 | inactive: 0.028 | inactive: -0.026 | inactive: 0.029 | inactive: 0.117 | inactive: -0.085 | – | inactive: 0.088 | inactive: -0.012 | inactive: -0.015 | inactive: -0.033 | inactive: -0.017 | inactive: -0.005 |
| CIAO2B (UniProt Q9Y3D0) | inactive: -0.004 | inactive: 0.036 | inactive: 0.123 | inactive: -0.053 | inactive: -0.022 | inactive: 0.025 | – | – | inactive: 0.049 | inactive: 0.084 | – | inactive: -0.016 | inactive: 0.037 | inactive: 0.029 | inactive: 0.087 | inactive: 0.015 | inactive: -0.015 | inactive: -0.03 | inactive: 0.023 | inactive: -0.112 |
| CMTM6 (UniProt Q9NX76) | – | inactive: 0.061 | inactive: 0.031 | inactive: -0.039 | inactive: 0.091 | inactive: -0.103 | inactive: -0.077 | inactive: 0.104 | inactive: 0.052 | inactive: 0.256 | inactive: -0.056 | inactive: 0.232 | inactive: 0.07 | – | inactive: 0.046 | inactive: -0.037 | inactive: 0.075 | inactive: -0.025 | inactive: -0.035 | inactive: 0.054 |
| CHST11 (UniProt Q9NPF2) | inactive: 0.068 | – | inactive: 0.152 | inactive: 0.024 | – | inactive: 0.008 | inactive: -0.082 | inactive: -0.047 | inactive: 0.119 | inactive: -0.014 | inactive: -0.039 | inactive: 0.073 | inactive: -0.059 | inactive: 0 | inactive: 0.061 | inactive: 0.189 | inactive: 0.003 | inactive: -0.027 | – | inactive: 0.004 |
| CINP isoform 3 (UniProt Q9BW66) | inactive: -0.071 | inactive: 0.01 | inactive: 0.052 | inactive: 0.098 | inactive: -0.05 | inactive: -0.033 | inactive: -0.331 | inactive: 0.189 | inactive: 0.047 | inactive: 0.014 | inactive: -0.056 | inactive: -0.107 | – | inactive: -0.056 | inactive: 0.028 | inactive: 0.003 | inactive: 0.062 | inactive: 0 | inactive: 0.064 | inactive: -0.24 |
| CHFR (UniProt Q96EP1) | inactive: -0.252 | inactive: 0.063 | – | inactive: -0.013 | inactive: 0.043 | inactive: 0.052 | – | – | inactive: 0.052 | inactive: 0.033 | – | inactive: -0.052 | inactive: 0.004 | active: -0.61 | inactive: -0.032 | inactive: 0.063 | inactive: -0.084 | inactive: 0.033 | inactive: 0.008 | inactive: -0.03 |
| CMTM4 (UniProt Q8IZR5) | inactive: 0.086 | inactive: 0.06 | – | – | inactive: 0.139 | – | inactive: -0.009 | inactive: -0.005 | – | inactive: 0.013 | inactive: -0.051 | – | inactive: 0.014 | inactive: -0.109 | – | – | – | – | inactive: 0.063 | – |
| CHST10 (UniProt O43529) | inactive: -0.186 | – | – | – | – | – | inactive: -0.172 | inactive: -0.097 | – | – | inactive: -0.043 | – | inactive: 0.116 | inactive: 0.223 | – | – | – | – | – | – |
| CKAP2L (UniProt Q8IYA6) | inactive: -0.031 | – | – | inactive: -0.02 | – | inactive: 0.146 | inactive: 0.048 | inactive: 0.041 | inactive: 0.126 | inactive: -0.069 | inactive: 0.041 | inactive: 0.008 | inactive: 0.205 | inactive: 0.054 | inactive: 0.123 | inactive: -0.066 | inactive: 0.084 | inactive: -0.076 | – | inactive: -0.114 |
| CLTA isoform 2 (UniProt P09496) | inactive: -0.158 | inactive: -0.005 | inactive: 0.04 | inactive: 0.171 | inactive: 0.039 | inactive: -0.114 | – | – | inactive: -0.061 | inactive: 0.034 | – | inactive: 0.028 | inactive: -0.004 | inactive: 0.111 | inactive: 0.004 | inactive: -0.205 | inactive: 0.129 | inactive: 0.034 | inactive: 0.011 | inactive: -0.014 |
| CLASP2 (UniProt O75122) | inactive: 0.241 | inactive: 0.072 | inactive: -0.015 | inactive: 0.021 | inactive: -0.052 | inactive: -0.098 | inactive: -0.077 | inactive: 0.073 | – | inactive: 0.18 | inactive: -0.139 | inactive: -0.066 | – | inactive: 0.002 | – | inactive: 0.058 | inactive: -0.071 | inactive: 0.182 | inactive: 0.037 | inactive: -0.047 |

Shown with bars between the fields: part of the list above.
Target | log2 fold change (vemurafenib) | log2 fold change [1] | log2 fold change (barasertib) | log2 fold change [2] | log2 fold change (volasertib) | log2 fold change [3] | log2 fold change [4] | log2 fold change [5] | log2 fold change (saracatinib) | log2 fold change (sotrastaurin) | log2 fold change (alvocidib) | log2 fold change (Tubastatin A) | log2 fold change [6] | log2 fold change (defactinib) | log2 fold change [7] | log2 fold change (encorafenib) | log2 fold change [8] | log2 fold change (alisertib) | log2 fold change [9] | log2 fold change (gefitinib)
CMTM6 (UniProt Q9NX76) | – | inactive: 0.061 | inactive: 0.031 | inactive: -0.039 | inactive: 0.091 | inactive: -0.103 | inactive: -0.077 | inactive: 0.104 | inactive: 0.052 | inactive: 0.256 | inactive: -0.056 | inactive: 0.232 | inactive: 0.07 | – | inactive: 0.046 | inactive: -0.037 | inactive: 0.075 | inactive: -0.025 | inactive: -0.035 | inactive: 0.054
CINP isoform 3 (UniProt Q9BW66) | inactive: -0.071 | inactive: 0.01 | inactive: 0.052 | inactive: 0.098 | inactive: -0.05 | inactive: -0.033 | inactive: -0.331 | inactive: 0.189 | inactive: 0.047 | inactive: 0.014 | inactive: -0.056 | inactive: -0.107 | – | inactive: -0.056 | inactive: 0.028 | inactive: 0.003 | inactive: 0.062 | inactive: 0 | inactive: 0.064 | inactive: -0.24
CHFR (UniProt Q96EP1) | inactive: -0.252 | inactive: 0.063 | – | inactive: -0.013 | inactive: 0.043 | inactive: 0.052 | – | – | inactive: 0.052 | inactive: 0.033 | – | inactive: -0.052 | inactive: 0.004 | active: -0.61 | inactive: -0.032 | inactive: 0.063 | inactive: -0.084 | inactive: 0.033 | inactive: 0.008 | inactive: -0.03
CLTA isoform 2 (UniProt P09496) | inactive: -0.158 | inactive: -0.005 | inactive: 0.04 | inactive: 0.171 | inactive: 0.039 | inactive: -0.114 | – | – | inactive: -0.061 | inactive: 0.034 | – | inactive: 0.028 | inactive: -0.004 | inactive: 0.111 | inactive: 0.004 | inactive: -0.205 | inactive: 0.129 | inactive: 0.034 | inactive: 0.011 | inactive: -0.014
